Results deposited as PubChem BioAssay AID743121 (NCATS, 2013)
This is a random part of about 26,000 deposited reagents. 167 of all reagents (0.63%) count as active. 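Calls are per gene from RSA p-values that are not deposited; an individual active-marked siRNA can sensitise only weakly.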 The numbers tell different reagents against one gene apart. Further read-outs or replicates are left out here.

Screen: 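Knock-downs that sensitise breast cancer cells to camptothecin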 (primary screen)
Cell system: MDA-MB-231 cells, a human breast cancer line
Reagents: single siRNA against human genes, 20 nM siRNA (0.8 pmol per well)
Time to read-out: 120 h (drug added 48 h after transfection, read 72 h later)
Conditions: camptothecin 20 nM (about EC30) for 72 h; vehicle 0.1% DMSO in parallel plates
Measurement: 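Cell viability by ATP luminescence (CellTiter-Glo) as % of non-targeting siRNA wells, and the log2 ratio of viability without drug over viability with camptothecin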
Scale: log2 vehicle/camptothecin viability: higher = stronger sensitisation to camptothecin
Call rule: 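Active genes have an RSA gene-level p-value below 0.001, computed from the ratios of their separate siRNAs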

target	reagent	log2 vehicle/camptothecin viability	Outcome
PTPRN	1	-0.197	inactive
PTPRN	2	-0.257	inactive
PTPRN	3	-0.321	inactive
PTPRN	4	0.525	inactive
TF	1	-0.49	inactive
TF	2	-0.22	inactive
TF	3	-0.0225	inactive
TF	4	-0.0517	inactive
KLKB1	1	-0.369	inactive
KLKB1	2	-0.121	inactive
KLKB1	3	-0.398	inactive
KLKB1	4	-0.305	inactive
ITGA7	1	-0.479	inactive
ITGA7	2	-0.421	inactive
ITGA7	3	-0.538	inactive
ITGA7	4	0.111	inactive
TGM5	1	-0.311	inactive
TGM5	2	0.0678	inactive
TGM5	3	-0.122	inactive
TGM5	4	-0.236	inactive
ABCA12	1	-0.0965	inactive
ABCA12	2	0.356	inactive
ABCA12	3	-0.225	inactive
ABCA12	4	-0.158	inactive
FBXO27	1	-0.496	inactive
FBXO27	2	0.231	inactive
FBXO27	3	-0.0999	inactive
FBXO27	4	0.506	inactive
NRBF2	1	0.152	inactive
NRBF2	2	0.0274	inactive
NRBF2	3	-0.305	inactive
GALT	1	0.102	inactive
GALT	2	-0.328	inactive
GALT	3	-0.51	inactive
GALT	4	-0.27	inactive
NR0B2	1	0.0467	inactive
NR0B2	2	-0.289	inactive
NR0B2	3	0.0595	inactive
NR0B2	4	-0.521	inactive
RIOK2	1	-0.706	inactive
RIOK2	2	-0.345	inactive
RIOK2	3	-0.385	inactive
RIOK2	4	-0.547	inactive
ABCC10	1	-0.131	inactive
ABCC10	2	-0.544	inactive
ABCC10	3	0.0108	inactive
ABCC10	4	-0.374	inactive
CD81	1	-0.449	inactive
CD81	2	-0.0604	inactive
CD81	3	-0.302	inactive
CD81	4	-0.37	inactive
SLC9A4	1	0.588	inactive
SLC9A4	2	-0.145	inactive
SLC9A4	3	-0.12	inactive
SLC9A4	4	0.0477	inactive
NALF2	1	-0.304	inactive
NALF2	2	-0.252	inactive
NALF2	3	-0.0372	inactive
NALF2	4	-0.179	inactive
HSD3B2	1	-0.0996	inactive
HSD3B2	2	-0.136	inactive
HSD3B2	3	-0.222	inactive
PKN3	1	-0.139	inactive
PKN3	2	0.143	inactive
PKN3	3	-0.0526	inactive
PKN3	4	-0.00248	inactive
SLC26A3	1	0.622	inactive
SLC26A3	2	-0.0639	inactive
SLC26A3	3	-0.15	inactive
SLC26A3	4	-0.159	inactive
HSD17B12	1	-0.237	inactive
HSD17B12	2	0.227	inactive
HSD17B12	3	-0.13	inactive
HSD17B12	4	0.0036	inactive
NCAM1	1	1.09	active
NCAM1	2	1.11	active
NCAM1	3	-0.238	active
AKAP8L	1	-0.313	inactive
AKAP8L	2	-0.0593	inactive
AKAP8L	3	-0.258	inactive
AKAP8L	4	-0.293	inactive
CYP21A2	1	-0.117	inactive
CYP21A2	2	-0.552	inactive
CYP21A2	3	-0.252	inactive
CYP21A2	4	-0.574	inactive
RLIM	1	-0.326	inactive
RLIM	2	-0.058	inactive
RLIM	3	-0.51	inactive
RLIM	4	0.316	inactive

A portion from the list above, as a working copy:
target	reagent	log2 vehicle/camptothecin viability	Outcome
RIOK2	2	-0.345	inactive
RIOK2	3	-0.385	inactive
RIOK2	4	-0.547	inactive
ABCC10	1	-0.131	inactive
ABCC10	2	-0.544	inactive
ABCC10	3	0.0108	inactive
ABCC10	4	-0.374	inactive
CD81	1	-0.449	inactive
CD81	2	-0.0604	inactive
CD81	3	-0.302	inactive
CD81	4	-0.37	inactive
SLC9A4	1	0.588	inactive
SLC9A4	2	-0.145	inactive
SLC9A4	3	-0.12	inactive
SLC9A4	4	0.0477	inactive
